A short description of one data set: Working time (pot life) of RTV-2 composition with the catalyst tested. As to conditions: RTV-2, polyethyl silicate crosslinking agent; catalyst 2.66 mmol per 100 g of slurry.
With `CCCCC(CC)C(=O)[O-].CCCCC(CC)C(=O)[O-].CCCCNCCCC.CCCCNCCCC.[Zn+2]` (stereo not drawn) [[Zn(2-ethylhexanoate)2 (DBA) 2], [Zn(2-ethylhexanoate)2(N,N-dibutylamine)2]], the Working time was determined as 40 min.

`CCCCC(CC)C(=O)[O-].CCCCC(CC)C(=O)[O-].CCCCNCCCC.[Zn+2]` (stereo not drawn) [[Zn(2-ethylhexanoate)2 (DBA)], [Zn(2-ethylhexanoate)2(N,N-dibutylamine)]] returned a Working time of 80 min.

On to “[Zn(naphthenate)2(N,N-dibutylamine)2] [[Zn(NAPH)2(DBA) 2]]”, for which the Working time amounted to 46 min.

In turn, “[Zn(naphthenate)2(n-octylamine)2] [[Zn(NAPH)2(OA) 2]]” showed a Working time of 30 min.

Molecule “zinc 2-ethylhexanoate [[Zn(2-ethylhexanoate)2], reference compound]” gave a Working time of 2880 min.

The molecule “zinc naphthenate [[Zn(NAPH)2], reference compound]” came in with a Working time of 2880 min.

The molecule “zinc neodecanoate [[Zn(ND)2)], reference compound]” had a Working time greater than 2900 min.

Still in this data set, the particulars now being: RTV-2, polyethyl silicate crosslinking agent; catalyst 2.66 mmol per 100 g of slurry (UL28 0.886 mmol per 100 g).
For “[Zn(neodecanoate)2(N,N-dibutylamine)2] [[Zn(ND)2(DBA)2]]”, the “Working time (mn)” value is reported as 39 mn.

For “[Zn(neodecanoate)2(N,N-dibutylamine)] [[Zn(ND)2(DBA)]]”, the “Working time (mn)” value was 120 mn.

Consider “[Zn(neodecanoate)2(n-octylamine)2] [[Zn(ND)2(OA)2]]”, for which the “Working time (mn)” value is given as 32 mn.

Turning to “[Zn(neodecanoate)2(n-octylamine)] [[Zn(ND)2(OA)]]”, the “Working time (mn)” value amounted to 157 mn.

“dimethyltin dineodecanoate [UL28, reference compound]”: the “Working time (mn)” value is on record as 40 mn.

For the origin of these results see US9458319B2, “Article with antifouling properties, intended for aquatic uses and, in particular, for marine uses” (BLUESTAR SILICONES FRANCE SAS, priority 2012, dated 2016).
